Assay results reported in patent US20240360238A1 (MAGENTA THERAPEUTICS, published 2024).
These are yes or no findings as the source states them, for the method shown. Some results given as binding are weak or reduced against the parent protein; the word gives no strength.

Sequences of proteins named here, by UniProt entry; tags and fusion partners are left off. A change or cut given only in a name is not applied to a line headed by its entry. A line that says so, or that is headed by a name, gives the form on record, which may keep a tag or linker. Residues count along the entry.
UniProt P10721, residues 26-524: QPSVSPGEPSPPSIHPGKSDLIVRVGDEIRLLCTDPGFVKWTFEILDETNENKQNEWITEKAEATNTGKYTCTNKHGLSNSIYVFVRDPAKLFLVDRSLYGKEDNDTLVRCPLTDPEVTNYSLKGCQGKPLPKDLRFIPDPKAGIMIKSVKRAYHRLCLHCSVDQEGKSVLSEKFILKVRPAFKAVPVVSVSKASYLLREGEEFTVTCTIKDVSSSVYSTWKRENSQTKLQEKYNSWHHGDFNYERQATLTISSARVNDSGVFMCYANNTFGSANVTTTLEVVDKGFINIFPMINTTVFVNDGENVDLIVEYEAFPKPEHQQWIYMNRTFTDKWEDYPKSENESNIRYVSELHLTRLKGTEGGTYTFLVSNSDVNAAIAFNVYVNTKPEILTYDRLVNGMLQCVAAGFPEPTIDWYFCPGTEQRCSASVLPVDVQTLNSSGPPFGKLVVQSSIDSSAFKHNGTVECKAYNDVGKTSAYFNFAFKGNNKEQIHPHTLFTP
purified rhesus CD117 ectodomain (F6V858, form named): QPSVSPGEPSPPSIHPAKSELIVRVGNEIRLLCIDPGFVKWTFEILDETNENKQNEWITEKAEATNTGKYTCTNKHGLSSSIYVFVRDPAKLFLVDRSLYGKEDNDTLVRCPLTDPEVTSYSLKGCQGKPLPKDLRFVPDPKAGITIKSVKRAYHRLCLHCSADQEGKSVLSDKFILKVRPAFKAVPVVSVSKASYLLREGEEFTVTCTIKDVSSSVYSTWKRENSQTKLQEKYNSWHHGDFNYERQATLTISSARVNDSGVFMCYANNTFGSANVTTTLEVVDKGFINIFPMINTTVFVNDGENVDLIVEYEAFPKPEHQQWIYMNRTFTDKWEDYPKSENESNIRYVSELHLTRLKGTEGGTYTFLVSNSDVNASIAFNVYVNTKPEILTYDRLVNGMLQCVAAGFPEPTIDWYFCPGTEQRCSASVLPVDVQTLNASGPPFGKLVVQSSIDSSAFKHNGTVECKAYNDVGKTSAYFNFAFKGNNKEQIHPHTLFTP

Key:
[1] = target: purified human CD117 ectodomain (R&D Systems #332-SR) (human) (UniProt P10721); assay: BLI, IgG sensor-associated, human CD117 ectodomain in solution at 33.3 nM and 11 nM
[2] = target: T1, purified rhesus CD117 ectodomain (rhesus, UniProt F6V858 26-524); assay: BLI, purified rhesus CD117 ectodomain
T1 construct: extracellular domain; also called rhesus antigen

[3] = target: T1, purified rhesus CD117 ectodomain; assay: BLI, IgG sensor-associated, 100 nM rhesus CD117 ectodomain in solution

| Binder | binding [1] | binding [2] | binding [3] |
| --- | --- | --- | --- |
| HC-14/LC-14 (Ab14) (antibody, IgG1, V domains shown, Purified IgG; also called 014) VH: QVQLVQSGAAVKKPGESLKISCKGSGYRFTTYWIGWVRQMPGKGLEWMGIIYPGDSDTRYSPSFQGQVTISAGKSISTAYLQWSSLKASDTAMYYCARHGRGYNGYEGAFDIWGQGTMVTVSS VL: DIQLTQSPSSLSASVGDRVTITCRASQGISSFLAWYQQKPGKAPKLLIYDASTLQSGVPSRFSGSASGTDFTLTISSLQPEDFATYYCQQLNGYPLTFGGGTKVEIK | binds |  |  |
| HC-17/LC-17 (Ab17) (antibody, IgG1, V domains shown, From rat immunization/hybridoma; purified IgG in BLI; also called 017) VH: QIQLVQSGPELRKPGESVKISCKASGYTFTDYAMYWVKQAPGKGLKWMGWINTYTGKPTYADDFKGRFVFSLEASANTANLQISNLKNEDTATYFCARARGLVDDYVMDAWGQGTSVTVSS VL: SYELIQPPSASVTLGNTVSLTCVGDELSKRYAQWYQQKPDKTIVSVIYKDSERPSGISDRFSGSSSGTTATLTIHGTLAEDEADYYCLSTYSDDNLPVFGGGTKLTVL |  | binds | binds |
| HC-21/LC-21 (Ab21) (antibody, IgG1, V domains shown, From rat immunization/hybridoma; purified IgG in BLI; also called 021) VH: QIQLVQSGPELKKPGESVKISCKASGYTFTDYAVYWVIQAPGKGLKWMGWINTYTGKPTYADDFKGRFVFSLETSASTANLQISNLKNEDTATYFCARGAGMTKDYVMDAWGRGVLVTVS VL: SYELIQPPSASVTLGNTVSLTCVGDELSKRYAQWYQQKPDKTIVSVIYKDSERPSDISDRFSGSSSGTTATLTIHGTLAEDEADYYCLSTYSDDNLPVFGGGTKLTVL |  | binds | binds |
| HC-25/LC-25 (Ab25) (antibody, IgG1, V domains shown, From rat immunization/hybridoma; purified IgG in BLI; also called 025) VH: QIQLVQSGPELKKPGESVKISCKASGYTFTDYAIHWVKQAPGQGLRWMAWINTETGKPTYADDFKGRFVFSLEASASTAHLQISNLKNEDTATFFCAGGSHWFAYWGQGTLVTVSS VL: SYELIQPPSASVTLENTVSITCSGDELSNKYAHWYQQKPDKTILEVIYNDSERPSGISDRFSGSSSGTTAILTIRDAQAEDEADYYCLSTFSDDDLPIFGGGTKLTVL |  | binds | binds |
| HC-18/LC-18 (Ab18) (antibody, IgG1, V domains shown, From rat immunization/hybridoma; purified IgG in BLI; also called 018) VH: EVQLQQYGAELGKPGTSVRLSCKVSGYNIRNTYIHWVNQRPGEGLEWIGRIDPTNGNTISAEKFKTKATLTADTSSHTAYLQFSQLKSDDTAIYFCALNYEGYADYWGQGVMVTGSS VL: DIQMTQSPSFLSASVGDRVTINCKASQNINKYLNWYQQKVGEAPKRLIFKTNSLQTGIPSRFSGSGSGTDYTLTISSLQTEDVATYFCFQYNIGYTFGAGTKVELK |  | binds | binds |
| HC-23/LC-23 (Ab23) (antibody, IgG1, V domains shown, From rat immunization/hybridoma; purified IgG in BLI; also called 023) VH: EVQLQQYGAELGKPGTSVRLSCKVSGYNIRNTYIHWVHQRPGEGLEWIGRIDPTNGNTISAEKFKSKATLTADTSSNTAYMQFSQLKSDDTAIYFCAMNYEGYADYWGQGVMVTVSS VL: DIQMTQSPSFLSASVGDRLTINCKASQNINKYLNWYQQKLGEAPKRLIFKTNSLQTGIPSRFSGSGSGTDYTLTISSLQPEDVATYFCFQYNIGFTFGAGTKLELK |  | binds | binds |
| HC-22/LC-22 (Ab22) (antibody, IgG1, V domains shown, From rat immunization/hybridoma; purified IgG in BLI; also called 022) VH: QVQLKESGPGLVQPSQTLSLTCTVSGFSLTSYLVHWVRQPPGKTLEWVGLMWNDGDTSYNSALKSRLSISRDTSKSQVFLKMHSLQAEDTATYYCARESNLGFTYWGHGTLVTVSS VL: DIQMTQSPASLSASLEEIVTITCKASQGIDDDLSWYQQKPGKSPQLLIYDVTRLADGVPSRFSGSRSGTQYSLKISRPQVADSGIYYCLQSYSTPYTFGAGTKLELK |  | binds | binds |
| HC-27/LC-27 (Ab27) (antibody, IgG1, V domains shown, From rat immunization/hybridoma; purified IgG in BLI; also called 027) VH: EVQLVESGGGLVQPGRSMKLSCKASGFTFSNYDMAWVRQAPTRGLEWVASISYDGITAYYRDSVKGRFTISRENAKSTLYLQLVSLRSEDTATYYCTTEGGYVYSGPHYFDYWGQGVMVTVSS VL: DIQMTQSPSSMSVSLGDTVTITCRASQDVGIFVNWFQQKPGRSPRRMIYRATNLADGVPSRFSGSRSGSDYSLTISSLESEDVADYHCLQYDEFPRTFGGGTKLELK |  | binds | binds |
| HC-19/LC-19 (Ab19) (antibody, IgG1, V domains shown, From rat immunization/hybridoma; purified IgG in BLI; also called 019) VH: EVQLQESGPGLVKPSQSLSLTCSVTGYSISSNYRWNWIRKFPGNKVEWMGYINSAGSTNYNPSLKSRISMTRDTSKNQFFLQVNSVTTEDTATYYCARSLRGYITDYSGFFDYWGQGVMVTVSS VL: DIRMTQSPASLSASLGETVNIECLASEDIFSDLAWYQQKPGKSPQLLIYNANSLQNGVPSRFSGSGSGTRYSLKINSLQSEDVATYFCQQYKNYPLTFGSGTKLEIK |  | binds | binds |
| HC-20/LC-20 (Ab20) (antibody, IgG1, V domains shown, From rat immunization/hybridoma; purified IgG in BLI; also called 020) VH: EVQLQQYGAELGKPGTSVRLSCKLSGYKIRNTYIHWVNQRPGKGLEWIGRIDPANGNTIYAEKFKSKVTLTADTSSNTAYMQLSQLKSDDTALYFCAMNYEGYEDYWGQGVMVTVSS VL: DIQMTQSPSFLSASVGDSVTINCKASQNINKYLNWYQQKLGEAPKRLIHKTDSLQTGIPSRFSGSGSGTDYTLTISSLQPEDVATYFCFQYKSGFMFGAGTKLELK |  | binds | binds |
| HC-28/LC-28 (Ab28) (antibody, IgG1, V domains shown, From rat immunization/hybridoma; purified IgG in BLI; also called 028) VH: EVQLQQYGAELGKPGTSVRLSCKVSGYKIRNTYIHWVNQRPGKGLEWIGRIDPANGNTIYAEKFKSKVTLTADTSSNTAYMQLSQLKSDDTALYFCAMNYEGYEDYWGQGVMVTVSS VL: DIQMTQSPSFLSASVGDSVTINCKASQNINKYLNWYQQKLGEAPKRLIHKTNSLQPGFPSRFSGSGSGTDYTLTISSLQPEDVAAYFCFQYNSGFTFGAGTKLELK |  | binds | binds |
| HC-24/LC-24 (Ab24) (antibody, IgG1, V domains shown, From rat immunization/hybridoma; purified IgG in BLI; also called 024) VH: EVQLVESGGGLVQSGRSLKLSCAASGFTVSDYYMAWVRQAPTKGLEWVATINYDGSTTYHRDSVKGRFTISRDNAKSTLYLQMDSLRSEDTATYYCARHGDYGYHYGAYYFDYWGQGVMVTVSS VL: DIVLTQSPALAVSLGQRATISCRASQTVSLSGYNLIHWYQQRTGQQPKLLIYRASNLAPGIPARFSGSGSGTDFTLTISPVQSDDIATYYCQQSRESWTFGGGTNLEMK |  | binds | binds |
